# Hit rate of the full screen: of about 140,000 compounds, about 4,300 (3.1%) were called active. This list was built around the results that the source calls inconclusive (neither active nor inactive); the mix of calls is not that of the screen.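 How the source made its calls: active means readout at or below -70, meaning at least 70% loss of cells showing the perinucleolar compartment, a nuclear body marking cancer cells; inconclusive means readout between -30 and a set limit; inactive means the rest.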
# Assay: High Content Assay for Compounds that inhibit the Assembly of the Perinucleolar Compartment;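 further: plate controls were DMSO wells for no effect and camptothecin positive control wells for full effect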
# Conditions: PC3M PTB-GFP, PNC prevalence imaging, 16 h; at 10 µM; hits give low values
# Outline: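 Read-out is percentage of cells bearing a perinucleolar compartment, from automated 20x imaging of fixed, Hoechst-stained PC3M PTB-GFP cells. Cells were seeded 4 h, then exposed 16 h to compound (23 nl of library stock) in duplicate plates.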
row,SMILES,"activity change (PNC), negative = inhibition"
1,Cn1c(=O)oc2cc(S(=O)(=O)N3CCCC(C(=O)NCC4COc5ccccc5O4)C3)ccc21 (configuration not stated),inconclusive: -30.4%
2,Cc1nnc(NS(=O)(=O)c2ccc(N)cc2)s1,inactive: -3.58%
3,Cc1cc(NC(=O)c2cnn3c(C(F)F)cc(C4CC4)nc23)no1,inactive: -23.1%
4,CCCC(=O)Nc1ccc(C(=O)NCC2CCCO2)cc1 (configuration not stated),inactive: -2.87%
5,CCN(CC)S(=O)(=O)c1ccc(NC(=O)c2ccc(NS(C)(=O)=O)cc2)cc1,inactive: 19.6%
6,Cc1ccc(SCCC(=O)N2CCC(C)CC2)cc1,inactive: 22%
7,Cc1cccc(N=Nc2ccc(O)c3ncccc23)c1,inconclusive: -54.4%
8,O=C(Nc1ccc(F)cc1)C1CCCCC1,inconclusive: -34.8%
9,O=C(Oc1ccc2ccc(OC(=O)N3CCCCCC3)cc2c1)N1CCCCCC1,inconclusive: -50.8%
10,COC(=O)c1ccccc1S(=O)(=O)Nc1ccc(OC)nc1,inactive: -19.6%
11,CCOc1ccc(S(=O)(=O)Nc2ccc(S(=O)(=O)N3CCOCC3)cc2)cc1,inconclusive: -41.7%
12,CC(=O)c1cccc(NC(=O)CCCOc2ccc(C)cc2)c1,inconclusive: -46.6%
13,Cc1cccc(C)c1NC(=S)NNc1ncc(C(F)(F)F)cc1Cl,inactive: 20.1%
14,Cc1ccc(N2C(=O)CSC2c2ccccn2)cc1Cl (configuration not stated),inactive: -12.8%
15,CSCc1ccc(C(=O)NCc2ccc(F)cc2)cc1,inconclusive: -39.1%
16,Cc1cc(=O)n2nc(-c3ccccc3)sc2c1C#N,inconclusive: -50.3%
17,CCn1c(C)c(C(C)=O)c(N2CCN(c3ccccc3)CC2)nc1=S,inconclusive: -37.8%
18,Cc1cc(C)n2cc(CSc3nc4ccccc4s3)nc2n1,inactive: -5.84%
19,CCN(CCNC(=O)C1CCN(S(=O)(=O)c2cccc3nsnc23)CC1)c1ccccc1,inconclusive: -39.4%
20,CC(C)Cn1[nH]c2c3c(ccc2c1=O)C(=O)c1ccccc1C3=O,inactive: 19.8%
21,CCN(C(=O)CN1CCN(C)CC1)c1cccc2ccccc12,inactive: 19.9%
22,O=c1cc(O)c2sc3nc(-c4cccnc4)cc(C(F)(F)F)c3c2[nH]1,inactive: 13.9%
23,CCn1c(CNc2ccc(Cl)cc2)nnc1SCc1ccc(Cl)cc1,inconclusive: -39.1%

row,SMILES,"activity change (PNC), negative = inhibition"
1,CC(=O)c1ccc(NC(=O)C(C)OC(=O)COc2ccc(C#N)cc2)cc1 (configuration not stated),inactive: 21.7%
2,O=C(COC(=O)c1ccco1)c1ccc2ccccc2c1,inconclusive: -63.8%
3,CC(Oc1ccccc1)C(=O)NC1CC(C)(C)NC(C)(C)C1 (configuration not stated),inconclusive: -68.1%
4,COC(=O)CSc1nnc(CNC(=O)c2cccs2)n1-c1cccc(C)c1,inconclusive: -56.8%
5,CCC(NC(=O)NCc1ccc2c(c1)OCO2)(C(F)(F)F)C(F)(F)F,inconclusive: -41.9%
6,CCOC(=O)C1=C(CC)OC(N)=C(C#N)C1c1ccc(OC)cc1OC (configuration not stated),inactive: 16.3%
7,CCN1C(=O)CC(N2CCC(Nc3ccc(OC)cc3)CC2)C1=O (configuration not stated),inactive: 54.8%
8,CCC(C)[C@H](NC(=O)Nc1ccc2c(c1)OCCO2)C(=O)O (some centres not stated),inconclusive: -72%
9,COc1ccccc1-c1noc(-c2ccco2)n1,active: -118%
10,O=C(Cn1nc(-c2cccc(Cl)c2)ccc1=O)Nc1cccnc1,inconclusive: -45.3%
11,N#C/C(=C\c1ccco1)C(=O)Nc1cccc2ncccc12,inactive: 26.9%
12,Cc1ccc(-c2onc3ccc(C4(C)OCCO4)cc23)cc1,inconclusive: -34.6%
13,C/C(=N\NC(=O)c1cccc(S(=O)(=O)Nc2cccc(Cl)c2)c1)c1cccs1,inconclusive: -44.8%
14,CC1(C)SC(=S)N(NC(=O)Nc2cccc3ccccc23)C1N(O)C(=O)Nc1ccccc1 (configuration not stated),inconclusive: -58.3%
15,C=CCN=C(C)C1=C(O)C(C)OC1=O (configuration not stated),inconclusive: -31.4%
16,CCOC(=O)c1ccc(Nc2nnc3nc(C)cc(C)n23)cc1,inactive: 6.42%
17,COc1ccc(NC(=S)Nc2cccc([N+](=O)[O-])c2)cc1,inactive: -8.56%
18,Cc1occc1C(=O)N/N=C/C1=C(N2CCOCC2)C(=C\c2ccc(Cl)cc2)/CC1,inactive: -17.5%
19,CC(=O)Nc1ccc(NC(C)=O)s1,inactive: 15%
20,CCc1cc2c(=O)c(-c3nc4ccccc4n3C)c(C)oc2c(CN2CCOCC2)c1O,inconclusive: -41%
21,COc1ccc(CC(=O)Nc2oc(-c3ccccc3)c(-c3ccccc3)c2C#N)cc1OC,active: -100%
22,CCCCC(=O)c1c(C)cc(C)[nH]c1=O,inconclusive: -39.2%
23,CCOc1ccc(NC(=O)CSc2nccn2C)cc1,active: -100%

# Some of the entries above in a different format.
row	SMILES	activity change (PNC), negative = inhibition
1	CC(=O)c1ccc(NC(=O)C(C)OC(=O)COc2ccc(C#N)cc2)cc1 (configuration not stated)	inactive: 21.7%
17	COc1ccc(NC(=S)Nc2cccc([N+](=O)[O-])c2)cc1	inactive: -8.56%
18	Cc1occc1C(=O)N/N=C/C1=C(N2CCOCC2)C(=C\c2ccc(Cl)cc2)/CC1	inactive: -17.5%
20	CCc1cc2c(=O)c(-c3nc4ccccc4n3C)c(C)oc2c(CN2CCOCC2)c1O	inconclusive: -41%

# Additional compounds:

row,SMILES,"activity change (PNC), negative = inhibition"
1,O=C(NCCN1CCOCC1)c1ccncc1,inconclusive: -40.9%
2,O=C(NC1CCCc2ccccc21)C1CCN(c2c3c(nc4ncnn24)CCC3)CC1 (configuration not stated),inactive: -19.8%
3,COc1ccc(C(C#N)C2(C)OCCO2)cc1OC (configuration not stated),inactive: 17.9%
4,COc1cc(OC)cc(C(=O)NC2CCN(C(=O)N3c4ccccc4Sc4ccccc43)CC2)c1,active: -91%
5,COc1cc(C)c(NC(=S)Nc2cccc(Cl)c2)cc1OC,inactive: -13.2%
6,O=C(COc1ccc2c(c1)CCC2)N1CCc2ccccc21,active: -80.6%
7,Cc1nc(NC(C)(C)CO)c([N+](=O)[O-])cc1[N+](=O)[O-],active: -119%
8,COc1cc(/C=N/NC(=O)COc2cc(C)cc(C)c2)ccc1OS(=O)(=O)c1ccc(C)cc1,inconclusive: -36.1%
9,O=C1CN(C(=O)c2ccc(Br)o2)C(c2ccccc2)c2cc(Br)ccc2N1 (configuration not stated),inactive: 12.4%
10,O=C1c2c(O)cc(O)cc2O[C@@]12c1c(cc(O)c3c1O[C@H](c1ccc(O)cc1)[C@@H](O)C3)O[C@@H]2c1ccc(O)cc1,inconclusive: -39.9%
11,COCCNC(=S)N/N=C(\C)c1ccccc1O,inconclusive: -38%
12,Cc1nn(-c2ccccc2)c(Cl)c1C(=O)OC(C)C(=O)Nc1ccc2c(c1)OCO2 (configuration not stated),inconclusive: -73.2%
13,Cc1cc(C)c(C#N)c(SCC(=O)C(C)(C)C)n1,inactive: 54.6%
14,CN(C)C(=O)COC(=O)c1cc(Cl)cc(Cl)c1N,inconclusive: -46.4%
15,O=S(=O)(N1CCOCC1)n1nnc2ccccc21,inconclusive: -53.5%
16,CC(=O)Nc1cccc(C(=O)/C=C/c2ccc(/C=C/C(=O)c3cccc(NC(C)=O)c3)cc2)c1,inconclusive: -56.4%
17,CCSc1nc(N)nc(-c2cccs2)c1C#N,inconclusive: -32.9%
18,CCN(CC)S(=O)(=O)c1ccc(Cl)c(C(=O)OC)c1,inconclusive: -76.5%
19,COc1ccccc1COCC(O)CN(Cc1ccco1)Cc1ccccc1O (configuration not stated),active: -116%
20,CCN(CC)c1ccc(N=Cc2c(C)[nH]c3ccccc23)cc1,inconclusive: -53.8%
21,CCN1CCN(c2cc3c(cc2F)c(=O)c(C(=O)O)cn3C2CC2)CC1,active: -115%
22,CCOC(=O)CSC1=C(C#N)C(c2ccccc2OCC)C(C#N)C(=O)N1 (configuration not stated),inactive: 0.673%
23,CCOC(=O)c1sc(NC(=O)c2sccc2C)cc1C,inconclusive: -58.5%

# Three structures out of the list, ordered by molar mass, ascending.
row,SMILES,"activity change (PNC), negative = inhibition"
18,CCN(CC)S(=O)(=O)c1ccc(Cl)c(C(=O)OC)c1,inconclusive: -76.5%
12,CC(=O)c1cccc(NC(=O)CCCOc2ccc(C)cc2)c1,inconclusive: -46.6%
19,COc1ccccc1COCC(O)CN(Cc1ccco1)Cc1ccccc1O (configuration not stated),active: -116%

# The results go on.

row,SMILES,"activity change (PNC), negative = inhibition"
1,CC1CCN(S(=O)(=O)N2CCC(C(=O)NCc3cccs3)CC2)CC1,inconclusive: -34.1%
2,CCc1nnc(NS(=O)(=O)c2ccc(N/C=C\C(=O)c3cccc4ccccc34)cc2)s1,inconclusive: -52.8%
3,Cc1ccc2nc(CSc3nnc(Cc4cccs4)n3C3CCCCC3)cc(=O)n2c1,inconclusive: -70.2%
4,O=C(Nc1ccccc1)N1CCSc2cc(Cl)ccc21,inconclusive: -60.9%
5,CCN1C(=O)c2cccc3c(S(=O)(=O)Nc4nc(C)cs4)ccc1c23,inconclusive: -33.7%
6,CCCCN(C(=O)c1cnc2n(c1=O)CCS2)c1ccccc1,inconclusive: -44%
7,CC(=O)Oc1cccc(/C=c2\sc3nc(-c4ccco4)nn3c2=O)c1,inconclusive: -49%
8,Cc1ccc(Nc2c(-c3ccc(N4CCOCC4)cc3)nc3ncccn23)cc1,inactive: 34.4%
9,CCOC(=O)C1=C(N)N2C(=O)C(C)SC2=C(C(=O)OC)C1c1cccc(OC)c1 (configuration not stated),inconclusive: -57%
10,CC12CCC(C(=O)NNc3ccc([N+](=O)[O-])cc3)(CC1=O)C2(C)C (configuration not stated),inactive: -27.4%
11,CC(=O)Nc1ccc(Sc2ncnc3scc(-c4ccccc4)c23)cc1,inconclusive: -59.9%
12,Cn1cc(CNC(=O)C23CC4CC(CC(C4)C2)C3)cn1,inactive: -29.4%
13,CC(NC(=O)Nn1cnnc1)(C(F)(F)F)C(F)(F)F,inactive: 35.2%
14,Cc1ccc(SC(C)C(=O)Nc2ncn[nH]2)cc1 (configuration not stated),inconclusive: -32.1%
15,O=S1(=O)C=C(Sc2nnc(-c3ccccc3)o2)c2ccccc21,inconclusive: -66.5%
16,N#Cc1c2n(c3c(=O)n(Cc4ccccc4Cl)cnc13)CCCC2,inconclusive: -30.5%
17,N#Cc1cc([N+](=O)[O-])ccc1Oc1cccc(/C=N/NC(=O)c2cccc(Cl)c2)c1,inconclusive: -52.2%
18,CSc1ncc(C(=O)O)n1-c1ccc(F)cc1,inconclusive: -46.9%
19,COC(=O)C1=C(C(=O)OC)SC2(S1)C(C(=O)OC)=C(C(=O)OC)SC1=C2c2cc(C)cc(C)c2NC1(C)C,inconclusive: -43.2%
20,CCOC(=O)CSc1nnc(NC(=O)c2cccc(S(=O)(=O)N3CCCC3)c2)s1,inconclusive: -39.7%
21,CC(=O)NCCC(Cc1ccccc1)c1ccco1 (configuration not stated),active: -100%
22,CC(=O)Nc1cccc(S(C)(=O)=O)c1,inconclusive: -48.2%
23,Cc1ccc(S(=O)(=O)NCCOc2nc(N(C)C)nc(N3CCOCC3)n2)cc1,active: -92.7%
